According to patent US20230357411A1:
These are yes or no findings as the source states them, for the method shown.

Tests used:
Test in all cases: ELISA
[1] = target: P75 (low-affinity NGF receptor p75)
TrKB = target: TrKB
TrKC = target: TrKC

Measured: binding

B1: humanized anti-TrkA monoclonal antibody H1L1-IgG4 (antibody)
heavy: EVQLLESGGGLVQPGGSLKLSCKASGYAFTNYWLGWMKQRPGHGLEWIGDFYPRTGNTFYNENFKGKVTLTADKSSNTAYMQLSSLTSEDSAVYLCARAGTGFDYWGQGTTLTVSSASTKGPSVFPLAPCSRSTSESTAALGCLVKDYFPEPVTVSWNSGALTSGVHTFPAVLQSSGLYSLSSVVTVPSSSLGTKTYTCNVDHKPSNTKVDKRVESKYGPPCPPCPAPEAAGGPSVFLFPPKPKDTLMISRTPEVTCVVVDVSQEDPEVQFNWYVDGVEVHNAKTKPREEQFNSTYRVVSVLTVLHQDWLNGKEYKCKVSNKGLPSSIEKTISKAKGQPREPQVYTLPPSQEEMTKNQVSLTCLVKGFYPSDIAVEWESNGQPENNYKTTPPVLDSDGSFFLYSKLTVDKSRWQEGNVFSCSVMHEALHNHYTQKSLSLSLG
light: EIVMTQSPATLSLSVGERVTLSCKASENVGGYVSWYQQKPDQSPKLLIYGASSRHTGVPDRFTGSGSETDFTLTISSVQAEDLAAYHCGQNYIYPFTFGGGTKLEIKRTVAAPSVFIFPPSDEQLKSGTASVVCLLNNFYPREAKVQWKVDNALQSGNSQESVTEQDSKDSTYSLSSTLTLSKADYEKHKVYACEVTHQGLSSPVTKSFNRGEC
no binding (tested: 20 µg/mL): [1] | TrKB | TrKC

B2: human-mouse chimeric anti-TrkA monoclonal antibody 23E12 (H0L0-IgG4) (antibody)
heavy: QVQLQQSGAELVRPGTSVKISCKASGYAFTNYWLGWMKQRPGHGLEWIGDFYPRTGNTFYNENFKGKVTLTADKSSNTAYMQLSSLTSEDSAVYLCARAGTGFDYWGQGTTLTVSSASTKGPSVFPLAPCSRSTSESTAALGCLVKDYFPEPVTVSWNSGALTSGVHTFPAVLQSSGLYSLSSVVTVPSSSLGTKTYTCNVDHKPSNTKVDKRVESKYGPPCPPCPAPEAAGGPSVFLFPPKPKDTLMISRTPEVTCVVVDVSQEDPEVQFNWYVDGVEVHNAKTKPREEQFNSTYRVVSVLTVLHQDWLNGKEYKCKVSNKGLPSSIEKTISKAKGQPREPQVYTLPPSQEEMTKNQVSLTCLVKGFYPSDIAVEWESNGQPENNYKTTPPVLDSDGSFFLYSKLTVDKSRWQEGNVFSCSVMHEALHNHYTQKSLSLSLG
light: SIVMTQSPKSMSMSVGERVTLSCKASENVGGYVSWYQQKPDQSPKLLIYGASSRHTGVPDRFTGSGSETDFTLTISSVQAEDLAAYHCGQNYIYPFTFGGGTKLEIKRTVAAPSVFIFPPSDEQLKSGTASVVCLLNNFYPREAKVQWKVDNALQSGNSQESVTEQDSKDSTYSLSSTLTLSKADYEKHKVYACEVTHQGLSSPVTKSFNRGEC
no binding (tested: 20 µg/mL): [1] | TrKB | TrKC

B3: humanized anti-TrkA monoclonal antibody H3L1-IgG4 (antibody, V domains shown)
VH: EVQLLESGGGLVQPGGSLKLSCKASGYAFTNYWLGWMKQRPGHGLEWIGDFYPRTGNTFYNENFKGQVTMSVDKSITTAYLQWNSLKASDTAMYYCARAGTGFDYWGQGTTLTVSS
VL: EIVMTQSPATLSLSVGERVTLSCKASENVGGYVSWYQQKPDQSPKLLIYGASSRHTGVPDRFTGSGSETDFTLTISSVQAEDLAAYHCGQNYIYPFTFGGGTKLEIKR
no binding (tested: 20 µg/mL): [1] | TrKB | TrKC

B4: humanized anti-TrkA monoclonal antibody H3L2-IgG4 (antibody, V domains shown)
VH: EVQLLESGGGLVQPGGSLKLSCKASGYAFTNYWLGWMKQRPGHGLEWIGDFYPRTGNTFYNENFKGQVTMSVDKSITTAYLQWNSLKASDTAMYYCARAGTGFDYWGQGTTLTVSS
VL: EIVMTQSPATLSLSVGERVTLSCKASENVGGYVSWYQQKPDQSPKLLIYGASSRATGVPDRFTGSGSETDFTLTISSVQAEDLAAYHCGQNYIYPFTFGGGTKLEIKR
no binding (tested: 20 µg/mL): [1] | TrKB | TrKC
